# Measurements: the supplement of paper PMC3334620
# Over roughly 33,000 sequences, “E-score (-0.5 to 0.5)” has its median near -8e-05; the highest 2% begin near 0.23. Some of the results follow.
# Target: T1, Nrg2 (UniProt P38082)
# T1 sequence: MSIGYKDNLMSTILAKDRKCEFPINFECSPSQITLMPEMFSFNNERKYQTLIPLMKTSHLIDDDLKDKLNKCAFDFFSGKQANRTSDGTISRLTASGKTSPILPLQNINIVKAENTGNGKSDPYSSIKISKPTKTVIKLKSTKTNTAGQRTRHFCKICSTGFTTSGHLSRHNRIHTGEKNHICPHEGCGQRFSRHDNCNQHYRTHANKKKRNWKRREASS
# Test: PBM E-score (8-mer binding enrichment) (E-score (-0.5 to 0.5)); higher = stronger / more preferred TF binding
# Conditions: protein concentration: 100 nM; construct: GST-full length
# Summary of the method: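 Bound GST-tagged yeast transcription factors, applied at about 100-200 nM to double-stranded universal all-10-mer Agilent arrays, were detected with fluorescent anti-GST. Scans were normalised with masliner. A modified Wilcoxon-Mann-Whitney statistic, the E-score, was assigned to each ungapped eight-base word pooled with its reverse complement by the Universal PBM Analysis Suite.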
row,Sequence,PBM E-score
1,TACGGGCA,-0.0372
2,CCAAGACA,0.0563
3,CTCGCGAC,0.192
4,AGCTGGAA,-0.172
5,CTTGACTA,-0.0721
6,CCGAAACA,0.102
7,ACACGTCA,0.0027
8,ATTCCTCA,-0.0108
9,ACGCATAA,0.0866
10,ACACATTA,0.00743
11,GCCACTAC,-0.0397
12,GGCCCTCA,-0.133
13,AGCCCTGG,-0.0338
14,AGTCGGAG,-0.0846
15,GGCACGTA,-0.133
16,ATACGGGG,0.0395
17,CTTTCGAC,0.0428
18,GCAACGGC,0.0443
19,AAACTGGC,0.0731
20,ATCAGAAC,-0.0385
21,CCTTGCGA,0.142
22,AGGGGGTA,-0.308
23,AGCTGGCA,0.0261
24,ATTATACC,0.18
25,CTCTAGTC,-0.303

row,Sequence,PBM E-score
1,TGACCCAA,0.1
2,TAGCCAAA,0.0368
3,ATATTGCA,0.113
4,AGTGCATG,-0.022
5,ATATCGCC,0.0573
6,GCCTTCAA,-0.0972
7,ACTTTCAC,0.0358
8,CAACCGTC,-0.152
9,AACACACT,0.16
10,CCTAGCGC,0.00435
11,ACAAAGCT,0.11
12,AATAGTAG,0.14
13,CGCAATTA,0.084
14,GTTTGATA,0.13
15,GTCATACA,0.0721
16,AAAGTACG,0.018
17,ACCTGCTC,0.00487
18,AGCTGGCG,-0.158
19,CCCCACTC,-0.0662
20,TAGAGTGA,-0.166
21,CATGTAAC,0.0421
22,AGACTAAT,-0.261
23,ACCAGATA,0.0558
24,CACCAATA,-0.00198
25,GCAATTCA,0.0732

row,Sequence,PBM E-score
1,GAGCCGTA,0.196
2,CGCACGTC,-0.132
3,AAGTCTAT,-0.0746
4,CATTTGGG,-0.0533
5,CAAAGGAA,0.0163
6,AGGTATCG,0.0761
7,CGCTATTA,0.0625
8,CTGGGGTC,0.015
9,GACATCTC,-0.0239
10,AAGAGGTA,0.0504
11,TATGCGAA,0.0489
12,AACGCTTA,-0.0173
13,CGTTGTAG,0.167
14,CTTAGGCA,-0.179
15,ACCGTCAC,-0.213
16,CTTGGCTA,0.00941
17,CCCAGGAA,-0.0761
18,CCACCCTC,0.147
19,ATTCGAAT,0.111
20,GAAGACGA,0.00571
21,ACGTTGCA,-0.0177
22,ATGCCGAA,0.112
23,AGTGGACG,0.217
24,ACTATTTG,0.175
25,GACCCCGC,0.112

row,Sequence,PBM E-score
1,AACCTGTA,0.0935
2,AAATCTCT,-0.0459
3,GTAACTAC,0.0907
4,CGACAGAC,0.0422
5,CGGAGGCA,-0.134
6,ATTCCGAC,0.0375
7,AGGTACAA,-0.0416
8,CGAAGCCA,-0.0815
9,AACCACAA,0.132
10,GCGCCTTA,0.0825
11,AGCAATTA,0.105
12,AATGACTG,0.0626
13,GGTGAACA,-0.17
14,AACTGAGG,0.00921
15,ACGCAATC,-0.0578
16,ACGTTCCA,0.118
17,AACTAGGT,0.146
18,CCTGGACG,0.00022
19,CGGAGACG,0.0414
20,CGCCACTA,-0.0683
21,CGAACTGA,-0.00734
22,GAACTCCA,0.0176
23,TCCACAGA,0.145
24,CGCCTAAG,-0.189
25,ATCGTGCG,0.272

row,Sequence,PBM E-score
1,CCAAGTCG,-0.13
2,GCAGATAA,-0.00928
3,AATTATGA,0.134
4,AGCTTACG,-0.1
5,CCCACCTC,-0.116
6,GAGACAGC,0.105
7,AATGCTGA,-0.0636
8,GCCGCTGA,-0.03
9,GTATAAGA,0.0494
10,GACCCTCA,-0.116
11,ATATACGC,-0.0563
12,CGAAGTCC,0.0551
13,TGCCCGCA,0.148
14,ATTCTCTG,-0.0965
15,CGCCTCCG,-0.24
16,AGTTATCA,0.0246
17,GAGCTATA,-0.155
18,AGAACTAT,0.0901
19,TGTATCAA,0.17
20,ACCCGAGC,-0.0712
21,GCCAGACA,-0.0912
22,AGTGCTGG,-0.0104
23,ATACCGGG,0.086
24,CTACTGAC,-0.0473
25,GGTGTCAC,0.00043

row,Sequence,PBM E-score
1,AGGCGAGG,-0.207
2,ACAAACTG,0.00631
3,ATGTTATC,0.132
4,CGGGAAGA,0.156
5,AAAAACAG,0.0637
6,AGGCAAAT,0.093
7,GACTTGCA,0.103
8,AGCAATAA,-0.00892
9,AACGGAAC,0.137
10,TCGACCCA,0.0467
11,ATGCATGC,0.0867
12,AGATCGCT,-0.0997
13,ATTCAAAT,0.147
14,CTCGCTAA,-0.0741
15,ATTACGGG,0.0452
16,AGTTGTAT,0.0726
17,GAATATGC,-0.126
18,GCAAGCCA,-0.123
19,TAAGATCA,-0.045
20,CTACGGAC,-0.224
21,GATACGGA,0.0263
22,ATTGGCAC,-0.0221
23,GAGCGTTA,-0.0932
24,AGACACCA,0.0737
25,AGAGTACA,-0.0423

row,Sequence,PBM E-score
1,CCTGTTGA,0.0992
2,ACCCCGCA,0.102
3,GCGGATCC,-0.0277
4,CCACAAGG,-0.0352
5,AATTCATG,0.187
6,CCACTAGC,-0.164
7,CAATGCCC,-0.0428
8,CACCGATC,0.0391
9,ACTCACAA,0.141
10,AGGTGAAA,0.17
11,GAACGCGC,0.0678
12,AGAGTGGA,-0.11
13,GCGACGAC,-0.0673
14,GAGACCTA,0.0208
15,GCCGTTCA,0.0406
16,CCATAGAG,-0.0396
17,ACCACAAT,-0.0522
18,ATGCCGAC,-0.0164
19,GCCGCCGC,-0.169
20,CTACTAAC,0.112
21,ACCTCTCA,0.16
22,ATGGGGAC,0.0116
23,CAAAGACG,0.00487
24,CATGATTA,0.206
25,AACGCCAC,-0.0716

# Reformatted as tab-separated lines: part of the list above.
row	Sequence	PBM E-score
20	CTACTAAC	0.112
21	ACCTCTCA	0.16
22	ATGGGGAC	0.0116

# Next entries.

row,Sequence,PBM E-score
1,ACTACCCG,0.0609
2,CTCATCGA,0.0273
3,AAAGCAGC,0.0448
4,CAAGACAG,0.0149
5,CAGCAATG,-0.0837
6,AGACGGTG,-0.249
7,CTACCTTC,-0.1
8,ACGAGTTC,0.105
9,CCCAGCGA,0.0149
10,ACACAGAT,0.0714
11,GGCCAACA,-0.023
12,ACGAGAGT,0.00058
13,CAATCGAC,-0.102
14,AGGTTTCC,-0.0376
15,AGCTTAGC,0.0428
16,AAAGCTGA,-0.0432
17,GTTATTTA,0.0978
18,ATGAATAG,0.0625
19,CTCCTCCA,-0.0998
20,AGAGGAAC,-0.113
21,CCCTTAGG,-0.0646
22,GTGAAAAA,-0.0085
23,AGCGTTAG,-0.116
24,ATGAACAG,-0.159
25,ACTGACAG,0.218

# 6 entries picked at random from the list so far, as already listed:
row,Sequence,PBM E-score
23,AGTGGACG,0.217
19,CCCCACTC,-0.0662
2,TAGCCAAA,0.0368
16,AAAGTACG,0.018
25,AGAGTACA,-0.0423
20,ACCCGAGC,-0.0712

# Quoted from the listing (five entries):
row,Sequence,PBM E-score
1,AACCTGTA,0.0935
2,AAATCTCT,-0.0459
3,GTAACTAC,0.0907
4,CGACAGAC,0.0422
5,CGGAGGCA,-0.134

# Next entries follow.

row,Sequence,PBM E-score
1,CAGGCGTC,-0.123
2,CCATAATC,0.057
3,AGGCTGAC,-0.214
4,AAGCTAGC,-0.0325
5,ATGCCGTG,-0.0144
6,CAGAGAAG,0.0986
7,GGAATAGA,0.113
8,AAGGGTAT,0.227
9,GAAGTTGA,0.0978
10,CGACCGAA,-0.0283
11,AGATCTAA,-0.0519
12,AGAGTGCG,0.0431
13,GCCCGTAA,-0.0485
14,CAATGCGA,0.0348
15,CGCCCAAC,0.0143
16,ACCGCTGG,-0.0888
17,AGGGACAG,-0.0226
18,TCATTGCA,0.095
19,AGAGTAAT,0.0751
